Source: the supplement of paper PMC6411743
± gives the standard deviation of the averaged measurements. The list shows a part of the results.

Assays:
Assay in all cases: NP40-soluble protein abundance relative to vehicle (solubility fold change) (ratio); higher = more soluble protein in presence of GTP
AATF = biological target: T1, AATF (UniProt Q9NY61)
T1 sequence (whole entry): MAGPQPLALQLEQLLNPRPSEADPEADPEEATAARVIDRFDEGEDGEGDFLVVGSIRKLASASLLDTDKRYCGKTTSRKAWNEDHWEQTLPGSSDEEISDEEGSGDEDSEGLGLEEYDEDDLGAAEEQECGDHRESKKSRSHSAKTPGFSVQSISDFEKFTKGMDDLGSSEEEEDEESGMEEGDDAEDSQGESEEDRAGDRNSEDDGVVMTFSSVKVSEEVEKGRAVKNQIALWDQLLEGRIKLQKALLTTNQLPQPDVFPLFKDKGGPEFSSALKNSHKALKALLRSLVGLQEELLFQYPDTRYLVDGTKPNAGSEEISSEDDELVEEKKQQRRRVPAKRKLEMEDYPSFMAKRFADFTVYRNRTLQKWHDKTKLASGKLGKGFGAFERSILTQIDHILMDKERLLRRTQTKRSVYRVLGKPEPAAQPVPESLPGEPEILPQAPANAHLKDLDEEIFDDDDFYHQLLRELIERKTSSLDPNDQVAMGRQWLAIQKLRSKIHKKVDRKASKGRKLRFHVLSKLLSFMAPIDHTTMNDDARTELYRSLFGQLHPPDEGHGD
Procedure, shortened: (§1)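 Crude Jurkat lysate, prepared by Dounce homogenisation, was exposed to eight concentrations from 0.1 to 10 mM for 10 min at room temperature and then 3 min at 37 °C. Solubilisation used 0.8% NP40 with benzonase for 60 min at 4 °C, followed by ultracentrifugation and TMT labelling of the supernatant for LC-MS/MS. After vsn normalisation of intensities, each value is the fold change against the detergent-processed vehicle within each replicate, across three independent experiments.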

ATXN10 = biological target: T2, ATXN10 (UniProt Q9UBB4)
T2 sequence (whole entry): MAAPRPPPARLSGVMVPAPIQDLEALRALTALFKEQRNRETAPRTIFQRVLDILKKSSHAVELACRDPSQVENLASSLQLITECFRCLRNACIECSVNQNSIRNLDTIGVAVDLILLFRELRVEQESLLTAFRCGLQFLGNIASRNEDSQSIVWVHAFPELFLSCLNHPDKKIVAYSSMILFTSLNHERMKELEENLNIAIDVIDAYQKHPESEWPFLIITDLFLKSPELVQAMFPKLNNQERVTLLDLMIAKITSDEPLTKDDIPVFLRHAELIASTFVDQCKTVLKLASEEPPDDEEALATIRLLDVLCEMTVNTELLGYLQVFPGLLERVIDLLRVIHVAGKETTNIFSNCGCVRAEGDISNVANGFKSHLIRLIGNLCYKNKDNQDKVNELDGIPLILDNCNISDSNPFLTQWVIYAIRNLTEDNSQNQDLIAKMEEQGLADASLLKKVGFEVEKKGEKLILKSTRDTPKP
Procedure, shortened: as §1

GGA2 = biological target: T3, GGA2 (UniProt Q9UJY4)
T3 sequence (whole entry): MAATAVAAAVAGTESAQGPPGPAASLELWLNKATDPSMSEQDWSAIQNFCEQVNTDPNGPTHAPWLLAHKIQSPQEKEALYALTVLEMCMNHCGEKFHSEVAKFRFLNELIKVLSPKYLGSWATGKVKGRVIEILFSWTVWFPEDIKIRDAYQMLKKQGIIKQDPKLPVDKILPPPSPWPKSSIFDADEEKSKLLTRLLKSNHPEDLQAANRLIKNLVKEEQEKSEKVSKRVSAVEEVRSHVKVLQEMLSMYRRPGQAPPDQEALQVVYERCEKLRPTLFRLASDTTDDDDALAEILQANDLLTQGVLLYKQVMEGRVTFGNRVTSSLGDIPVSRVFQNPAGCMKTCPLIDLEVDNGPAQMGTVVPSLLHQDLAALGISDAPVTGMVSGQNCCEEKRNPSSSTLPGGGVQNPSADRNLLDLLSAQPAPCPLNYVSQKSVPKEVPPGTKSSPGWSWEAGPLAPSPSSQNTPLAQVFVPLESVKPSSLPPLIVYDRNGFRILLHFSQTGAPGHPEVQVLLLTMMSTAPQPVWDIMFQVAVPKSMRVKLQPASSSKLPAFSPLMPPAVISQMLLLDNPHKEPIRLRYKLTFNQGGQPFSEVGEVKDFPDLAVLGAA
Procedure, shortened: as §1

MED17 = biological target: T4, MED17 (UniProt Q9NVC6)
T4 sequence (whole entry): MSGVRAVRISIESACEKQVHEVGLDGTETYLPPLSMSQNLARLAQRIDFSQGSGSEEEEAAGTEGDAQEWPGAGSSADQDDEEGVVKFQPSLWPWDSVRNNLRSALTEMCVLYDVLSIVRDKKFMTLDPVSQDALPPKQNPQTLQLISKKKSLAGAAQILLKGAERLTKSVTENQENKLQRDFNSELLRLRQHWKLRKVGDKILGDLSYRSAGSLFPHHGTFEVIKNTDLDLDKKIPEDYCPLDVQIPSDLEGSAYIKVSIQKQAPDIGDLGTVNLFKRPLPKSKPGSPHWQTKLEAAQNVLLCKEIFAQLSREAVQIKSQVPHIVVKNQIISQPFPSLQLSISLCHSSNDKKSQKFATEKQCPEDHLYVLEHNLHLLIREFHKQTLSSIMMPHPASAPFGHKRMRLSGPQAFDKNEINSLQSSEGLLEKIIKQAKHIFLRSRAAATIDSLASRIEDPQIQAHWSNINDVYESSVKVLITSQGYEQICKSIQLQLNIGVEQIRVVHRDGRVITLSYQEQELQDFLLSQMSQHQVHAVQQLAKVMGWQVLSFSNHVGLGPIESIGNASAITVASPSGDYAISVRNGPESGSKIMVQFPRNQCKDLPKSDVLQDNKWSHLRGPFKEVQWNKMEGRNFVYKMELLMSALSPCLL
Procedure, shortened: as §1

Nc1nc2c(ncn2[C@@H]2O[C@H](COP(=O)(O)OP(=O)(O)OP(=O)(O)O)[C@@H](O)[C@H]2O)c(=O)[nH]1 [guanosine triphosphate]
NP40-soluble protein abundance (AATF; concentration: 0.1mM): 0.928 ± 0.17
NP40-soluble protein abundance (AATF; concentration: 0.5mM): 0.957 ± 0.15
NP40-soluble protein abundance (AATF; concentration: 1mM): 1.01 ± 0.17
NP40-soluble protein abundance (AATF; concentration: 2mM): 1.03 ± 0.21
NP40-soluble protein abundance (AATF; concentration: 4mM): 1.13 ± 0.23
NP40-soluble protein abundance (AATF; concentration: 6mM): 1.15 ± 0.26
NP40-soluble protein abundance (AATF; concentration: 8mM): 1.16 ± 0.21
NP40-soluble protein abundance (AATF; concentration: 10mM): 1.29 ± 0.33
NP40-soluble protein abundance (ATXN10; concentration: 0.1mM): 0.968 ± 0.014
NP40-soluble protein abundance (ATXN10; concentration: 0.5mM): 0.965 ± 0.022
NP40-soluble protein abundance (ATXN10; concentration: 1mM): 0.928 ± 0.03
NP40-soluble protein abundance (ATXN10; concentration: 2mM): 0.9 ± 0.045
NP40-soluble protein abundance (ATXN10; concentration: 4mM): 0.892 ± 0.046
NP40-soluble protein abundance (ATXN10; concentration: 6mM): 0.886 ± 0.042
NP40-soluble protein abundance (ATXN10; concentration: 8mM): 0.866 ± 0.061
NP40-soluble protein abundance (ATXN10; concentration: 10mM): 0.855 ± 0.064
NP40-soluble protein abundance (GGA2; concentration: 0.1mM): 1.02 ± 0.097
NP40-soluble protein abundance (GGA2; concentration: 0.5mM): 0.916 ± 0.067
NP40-soluble protein abundance (GGA2; concentration: 1mM): 0.979 ± 0.12
NP40-soluble protein abundance (GGA2; concentration: 2mM): 0.971 ± 0.1
NP40-soluble protein abundance (GGA2; concentration: 4mM): 0.977 ± 0.11
NP40-soluble protein abundance (GGA2; concentration: 6mM): 0.934 ± 0.1
NP40-soluble protein abundance (GGA2; concentration: 8mM): 0.972 ± 0.12
NP40-soluble protein abundance (GGA2; concentration: 10mM): 0.927 ± 0.094
NP40-soluble protein abundance (MED17; concentration: 0.1mM): 1.073 ± 0.0088
NP40-soluble protein abundance (MED17; concentration: 0.5mM): 1.1 ± 0.053
NP40-soluble protein abundance (MED17; concentration: 1mM): 1.09 ± 0.075
NP40-soluble protein abundance (MED17; concentration: 2mM): 1.14 ± 0.14
NP40-soluble protein abundance (MED17; concentration: 4mM): 1.18 ± 0.14
NP40-soluble protein abundance (MED17; concentration: 6mM): 1.15 ± 0.17
NP40-soluble protein abundance (MED17; concentration: 8mM): 1.18 ± 0.19
NP40-soluble protein abundance (MED17; concentration: 10mM): 1.14 ± 0.16
